The source of these data is patent US20170016892A1, “LOCALIZED SURFACE PLASMON RESONANCE SENSING OF HUMAN PERFORMANCE BIOMARKERS USING SHORT PEPTIDE RECOGNITION ELEMENTS ON OPTICALLY ACTIVE METAL NANOSTRUCTURES” (Government of the United States as Represented by the …, priority 2015, published 2017).

The data set can be described thus: distance-dependent refractive index sensitivity of AuNR nanotransducers (layer-by-layer polyelectrolyte assembly).

Take “peptide-AuNR: Troponin I binding peptide with C-terminal cysteine (Seq. ID No. 2) conjugated to gold nanorods via Au—S linkage, adsorbed on filter paper (FYSHSFHENWPSC)”: under “at the dry-state thickness of the recognition layer”, the “distance-dependent refractive index sensitivity parameter (σ)” value is recorded as “about 6.67 nm/nm”. For the same substance, the “local refractive index sensitivity, higher than with antibody-based recognition elements” value (peptide versus antibody recognition elements) is listed as about 50%.
